Assay results reported in PubChem BioAssay AID1671190 (National Center for Advancing Translational Sciences (NCATS), 2021).
The whole screen tested about 580,000 compounds, of which about 6,100 (1.1%) were called active. The inconclusive results got no clear call from the source; some entries with a clear call stand among them for comparison. The call rests on the fitted dose curve; in most records, active means well fitted inhibition curve with a large enough effect; inconclusive means small, poorly fitted or top-dose-only effect, or another doubt; inactive means no such curve, though single readings can be large or run the other way. Where the call is inconclusive, the potency comes from a doubtful curve fit.

Amino acid sequences for entries named in this document (tags omitted). A change or cut given only in a name is not applied to a line headed by its entry.
UniProt P18054: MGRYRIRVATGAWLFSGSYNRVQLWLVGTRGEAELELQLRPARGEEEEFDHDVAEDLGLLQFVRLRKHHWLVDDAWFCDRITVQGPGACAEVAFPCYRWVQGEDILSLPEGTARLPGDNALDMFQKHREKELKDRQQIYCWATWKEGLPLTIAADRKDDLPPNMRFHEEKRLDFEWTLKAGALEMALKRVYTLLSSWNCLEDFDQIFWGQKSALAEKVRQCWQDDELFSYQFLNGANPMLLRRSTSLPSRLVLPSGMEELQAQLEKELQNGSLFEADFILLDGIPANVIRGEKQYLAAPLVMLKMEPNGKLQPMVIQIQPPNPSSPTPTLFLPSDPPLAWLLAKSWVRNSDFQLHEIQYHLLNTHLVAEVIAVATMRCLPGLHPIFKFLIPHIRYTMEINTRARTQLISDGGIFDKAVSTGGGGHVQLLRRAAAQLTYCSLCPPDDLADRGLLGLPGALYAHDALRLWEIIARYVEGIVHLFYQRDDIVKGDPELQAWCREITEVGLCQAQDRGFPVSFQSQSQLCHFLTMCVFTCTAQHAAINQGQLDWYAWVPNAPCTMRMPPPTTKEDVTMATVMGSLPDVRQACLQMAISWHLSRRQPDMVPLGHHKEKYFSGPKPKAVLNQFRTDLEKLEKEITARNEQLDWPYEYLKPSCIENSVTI

Molecular target: Polyunsaturated fatty acid lipoxygenase ALOX12 (Homo sapiens) (UniProt P18054)
Experiment: Primary qHTS assay for inhibitors of human arachidonate 12S-lipoxygenase (ALOX12): Round 2
Settings: purified 12hLO, xylenol orange hydroperoxide absorbance; series mostly up to 108 µM
Procedure, shortened: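 Hydroperoxide product was detected by ferrous iron/xylenol orange as the 573 to 405 nm absorbance ratio. Arachidonic acid at 40 uM (final) was turned over for 30 min at room temperature by 150 nM human 12hLO, pH 7.0 Hepes buffer, after 15 min compound preincubation.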
Potency means the concentration at half of the fitted maximal effect.

Structure (SMILES) | Potency
CCCC(=O)Nc1cc(C)c(NC(=O)c2ccccn2)cn1 | inactive
CCN(C(=O)c1cc(Cl)ccc1OC)c1ccccc1C | inactive
CC(=C\c1ccco1)/C=C1/SC(=S)N(CC(=O)O)C1=O | inconclusive: 141 µM [inhibitor, single point]
CCOC(=O)C1=C(C)NC(C)=C(C(=O)OCC)C1c1cc2ccc(C)cc2[nH]c1=O | inconclusive: 44.7 µM [inhibitor, partial curve, poor fit]
Cc1cccc(NC(=O)CN2CCc3cc4c(cc3C2)OCCCO4)c1 | inconclusive: 4.47 µM [inhibitor, full curve, poor fit]
CCC(c1cccs1)N1C(=O)[C@H]2CN(S(=O)(=O)c3cccc(F)c3)C[C@H]2C1=O (some centres not stated) | inconclusive: 17.8 µM [inhibitor, full curve]
Cc1cc(N2CCCCCC2)n2nc(Cc3ccc(Cl)cc3)nc2n1 | inactive
CSc1ccccc1C(=O)NCc1nc(-c2cccc(NC(=O)c3ccoc3C)c2)oc1C | inconclusive: 100 µM [inhibitor, single point]
CC(=O)c1ccc(OCc2coc(-c3cccc(Cl)c3)n2)cc1 | inconclusive: 158 µM [inhibitor, single point]
CCOC(=O)c1c(NC(=O)Cn2nnc(-c3ccccc3)n2)sc(C)c1C | inconclusive: 39.8 µM [inhibitor, single point]
COc1ccc(-c2nc(C)c(-c3ccccc3)s2)cc1OC | inconclusive: 7.94 µM [inhibitor, full curve]
Cc1ccc(-c2nc3nc4ccccc4nc3n2Cc2ccco2)cc1 | inactive
N#Cc1cccc(-c2ccc3ncnc(NCCN4CCOCC4)c3c2)c1 | inconclusive: 8.91 µM [inhibitor, full curve, poor fit]
COC(=O)C1=C(C)N(Cc2ccc(C(F)(F)F)cc2)C(=NCC2CC2)NC1c1cccc(Cl)c1 (configuration not stated) | inconclusive: 70.8 µM [inhibitor, partial curve, poor fit]
COc1ccc(C(=O)Oc2ccc3c(=O)c(-c4ccc(OC)c(OC)c4)c(C)oc3c2)cc1OC | inconclusive: 0.282 µM [inhibitor, full curve, poor fit]
CN(C)CCCN(Cc1ccccc1)C(=O)c1nn(C)c(=O)c2ccccc12 | inactive
Cn1cc(-c2nc3cncnc3n(Cc3ccc(F)cc3)c2=O)c2ccccc21 | inconclusive: 0.708 µM [inhibitor, full curve, poor fit]
CNNC(=S)Nc1cccc(C(F)(F)F)c1 | inconclusive: 35.5 µM [inhibitor, partial curve, poor fit]
CC(=O)N1c2ccc(S(=O)(=O)N3CCCC(C(=O)Nc4ccc(C)cc4)C3)cc2CC1C (configuration not stated) | inactive
COc1cccc(CN2CCN(Cc3cccc(Oc4ccccc4)c3)CC2)c1OC | inconclusive: 0.562 µM [inhibitor, full curve, poor fit]
O=C1C[C@@H]2c3c(cccc3CN1Cc1ccc(Br)cc1)C[C@@H](O)[C@H]2O | inconclusive: 89.1 µM [inhibitor, single point]

Exported tab-delimited: part of the list above
Structure (SMILES)	Potency
COc1cccc(CN2CCN(Cc3cccc(Oc4ccccc4)c3)CC2)c1OC	inconclusive: 0.562 µM [inhibitor, full curve, poor fit]
O=C1C[C@@H]2c3c(cccc3CN1Cc1ccc(Br)cc1)C[C@@H](O)[C@H]2O	inconclusive: 89.1 µM [inhibitor, single point]

Carrying on.

Structure (SMILES) | Potency
CCNS(=O)(=O)c1cccc(C(=O)c2c(C)cc3ccccn23)c1 | inconclusive: 39.8 µM [inhibitor, partial curve, poor fit]
Cn1c(=O)[nH]c(=O)c2c1nc(N1CCCCC1)n2CCCSc1nc2ccccc2s1 | inactive
O=c1nc(-c2ccc(Cl)cc2)c2cc(Cl)ccc2[nH]1 | inconclusive: 14.1 µM [inhibitor, full curve, poor fit]
O=C(COc1cccc(-n2cnnn2)c1)N1CCN(S(=O)(=O)c2ccccc2F)CC1 | inconclusive: 44.7 µM [inhibitor, partial curve, poor fit]
Cc1ccc(N2CCN(C(=O)c3cc(-c4ccc(F)cc4)[nH]c3C)CC2C)cc1 (configuration not stated) | inconclusive: 79.4 µM [inhibitor, partial curve, poor fit]
CC(C)CC(COCc1cccc(Cl)c1)N1CCN(C(=O)c2ccc(C(F)(F)F)cc2)CCC1=O (configuration not stated) | inconclusive: 50.1 µM [inhibitor, partial curve, poor fit]
CN(CC(=O)O)S(=O)(=O)c1cccs1 | inactive
CSc1ccccc1C(=O)Nc1cc(C(F)(F)F)cc(C(F)(F)F)c1 | inconclusive: 35.5 µM [inhibitor, partial curve, poor fit]
COc1cccc(CNc2ccc(F)c(Cl)c2)c1OC | inconclusive: 6.31 µM [inhibitor, full curve]
CC(C)=C[C@@H]1C[C@H](C)[C@H]2CC[C@H](C)c3c(O)c(O)c(C)c1c32 | inconclusive: 39.8 µM [inhibitor, partial curve, poor fit]
CCN1CCN(CCOc2ccc3c(=O)c(-c4ccc(Cl)cc4)coc3c2)CC1 | active: 17.8 µM
CSC1=NSC2=NC(=O)/C(=C\c3ccc(OC(=O)c4ccco4)cc3)C(=N)N12 | inconclusive: 89.1 µM [inhibitor, partial curve, poor fit]
OC1CCN(CC(O)C(F)(F)F)CC1 (configuration not stated) | inactive
COc1ccc(NC(=O)COc2ccc(/C=C/c3cccc[n+]3C)cc2OC)cc1 | inconclusive: 56.2 µM [inhibitor, partial curve, poor fit]
N#Cc1ccc(NC(=S)N[C@H]2CO[C@H]3[C@@H]2OC[C@H]3OC(=O)Nc2ccccc2)cc1 | inconclusive: 70.8 µM [inhibitor, partial curve]
CN(Cc1ccccc1)C1CCCc2ccccc21 (configuration not stated) | inactive
N#CCCN(Cc1cccs1)C(=O)Nc1ccc(F)cc1 | inconclusive: 112 µM [inhibitor, partial curve, poor fit]
O=C(c1cc(-c2cccs2)nc2ccccc12)N1CCN(CCN2CCCC2)CC1 | inactive
O=C(C1=NN[C@@H]2C(=O)N(c3cccc(F)c3)C(=O)[C@H]12)c1ccc2ccccc2n1 | inactive
CCOc1ccc(NC(=O)CSc2nnc(C)n2C2CC2)cc1S(=O)(=O)N1CCCC1 | inactive
Cc1cc(C)c2[nH]c(=O)c(CN(CC3CCCO3)C(=S)Nc3ccccc3)cc2c1 (configuration not stated) | inactive
